Experimental data taken from PubChem BioAssay AID445 (National Center for Advancing Translational Sciences (NCATS), 2006).
Values joined by “and” are separate entries in the source; they are usually repeats but may differ in a detail not shown here. Equal entries are not always repeated. The list shows a part of the results. These are further read-outs of the screen, such as a control signal, another cell line or another target. No call is given for them. The list favours compounds with an active or inconclusive main result. The note in brackets gives the kind of curve behind each potency; many fits are weak.

Assay: IkB Signaling
Conditions: ABC-DLBCL IkBa-CBG/CBR dual luciferase ratio (green luciferase fused to IkBa over red control in OCI-Ly3 lymphoma cells), 4 h
Summary of the method: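 In this assay, an IκBα–CBG68 fusion accumulates when IKK-driven degradation is blocked; native CBR normalizes for cell number. OCI-Ly3 cells were treated 4 h with compound and doxycycline, then green and red light read after Chroma-Glo addition.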

[1] = measured here: control luc red channel unless noted
[2] = measured here: IkB-luc green channel
[3] = measured here: control luc red channel

CS(=O)(=O)N1CCc2cc(S(=O)(=O)N3CCN(Cc4ccc5c(c4)OCO5)CC3)ccc21
AC50 [1]: 0.126 µM [falling, full curve]

CCOC(=O)C1CCCN(S(=O)(=O)c2ccc3[nH]c(=O)ccc3c2)C1 (stereo not given)
AC50 [1]: 1.58 µM [rising, full curve, poor fit]

COc1ccc(-c2nnn3c2nc(N2CCCC(C)C2)c2ccccc23)cc1 (stereo not given)
AC50 [1]: 2 µM [falling, full curve]

O=C(CSc1nnc(Cc2cccs2)n1Cc1ccco1)Nc1cccc(Cl)c1
AC50 [1]: 31.6 µM [falling, partial curve]

O=C(CN1CCC(c2nc3ccccc3s2)CC1)NCc1cccs1
AC50 [1]: 10 µM [falling, partial curve]

Cc1ccc(NC(=O)c2cc(S(=O)(=O)N3CCOCC3)c(Cl)cc2Cl)cc1
AC50 [1]: 15.8 µM [falling, partial curve]

CCC(Oc1ccccc1)C(=O)Nc1nnc(S(=O)(=O)Nc2ccccc2)s1 (stereo not given)
AC50 [1]: 3.98 µM [rising, partial curve]

CCc1ccc(CNC(=O)c2ccc(CSc3nc4ccncc4n3Cc3ccccc3)cc2)cc1
AC50 [1]: 12.6 µM [falling, partial curve]

O=C(NCC1c2ccccc2CCN1C(=O)CN1CCOCC1)C1CCCCC1 (stereo not given)
AC50 [1]: 3.98 µM [rising, single point]

CC(=O)c1ccc(N2CCN(C(=O)C3CCN(S(=O)(=O)c4cccc5nonc45)CC3)CC2)cc1
AC50 [1]: 20 µM [falling, partial curve]

O=c1c2c3c(sc2nnn1Cc1ccc(Br)cc1)CCCC3
AC50 [1]: 25.1 µM [falling, partial curve]

O=S(=O)(NCCc1csc(-c2ccc(F)cc2)n1)c1ccc(Cl)cc1
AC50 [1]: 25.1 µM [falling, single point]

CCOC(=O)c1ccc(NC(=O)CCc2c(C)nc3c(c(C)nn3C)c2C)cc1
AC50 [1]: 15.8 µM [falling, partial curve]

CCOc1ccccc1NC(=O)Cn1c(=O)ccc2cc(S(=O)(=O)N3CCC(C)CC3)ccc21
AC50 [1]: 2 µM [rising, full curve, poor fit]

COc1ccc(-c2cnc(C)o2)cc1S(=O)(=O)Nc1ccc(C)c(F)c1
AC50 [1]: 2.51 µM [rising, full curve, poor fit]

Cc1ccc(CN2CCSc3ccc(C(=O)N4CCN(c5cccc(C)c5C)CC4)cc32)cc1
AC50 [1]: 15.8 µM [falling, partial curve]

O=C(CSc1nccn1Cc1ccc(Cl)cc1)NC1CCCC1
AC50 [1]: 0.251 µM [falling, full curve, poor fit]

CCOC(=O)c1ccc(NC(=O)CC2C(=O)N(c3ccccc3)C(=O)N2Cc2cccs2)cc1 (stereo not given)
AC50 [1]: 20 µM [falling, partial curve]

Cc1ccc(S(=O)(=O)c2[nH]c(-c3ccccc3)nc2SCC(=O)O)cc1
AC50 [1]: 31.6 µM [falling, single point]

COc1ccc(N2CCN(CC(O)COc3ccc(C(C)(C)C)cc3)CC2)cc1 (stereo not given)
AC50 [1]: 20 µM [falling, partial curve, poor fit]

O=C1OC(Nc2ccc3c(c2)OCO3)c2ccccc21 (stereo not given)
AC50 [2]: 31.6 µM [rising, partial curve] | AC50 [3]: 25.1 µM [falling, partial curve]

CCCNc1nc2c(c(=O)n(C)c(=O)n2C)n1Cc1cccc(C)c1
AC50 [1]: 25.1 µM [falling, single point]

CCOc1ccc(CNC(=O)c2ccc3nc(Cc4ccc(OC)cc4)oc3c2)cc1OC
AC50 [1]: 15.8 µM [falling, partial curve]

CN(C(=O)CSc1nnc2[nH]c(=O)cc(-c3ccccc3)n12)c1ccccc1
AC50 [2]: 3.16 µM [rising, partial curve] | AC50 [3]: 3.98 µM [rising, partial curve]

COCCNC(=O)c1ccc2c(c1)N(Cc1cccc(Cl)c1)C(=O)c1ccccc1S2=O (stereo not given)
AC50 [1]: 39.8 µM [falling, single point]

Fc1ccc(CNc2ncnc3c2c(-c2ccccc2)cn3-c2ccccc2)cc1
AC50 [2]: 6.31 µM [rising, single point] | AC50 [3]: 7.94 µM [rising, single point]

Cc1ccc(C)c(N2CCN(C(=O)CN3C(=O)CSc4c3c(C)nn4-c3ccccc3)CC2)c1
AC50 [1]: 31.6 µM [falling, partial curve]

Cc1c2cnn(-c3ccccc3)c(=O)c2c(C)n1CCCC(=O)Nc1ccc(F)cc1F
AC50 [1]: 0.251 µM [falling, full curve]

COc1ccccc1NC(=O)N(Cc1ccco1)Cc1cc2c(C)ccc(C)c2[nH]c1=O
AC50 [1]: 15.8 µM [falling, partial curve]

O=C(c1ccc2c(Cl)c3c(nc2c1)CCCC3)N1CCN(c2ccccc2)CC1
AC50 [1]: 15.8 µM [falling, partial curve]

CCOc1ccccc1NS(=O)(=O)c1c(-c2ccc(C)cc2)csc1C(=O)OC
AC50 [1]: 10 µM [falling, full curve]

COc1ccc(-c2nc(SCC(=O)NCCCc3ccccc3)n[nH]2)cc1
AC50 [1]: 25.1 µM [falling, single point]

CCN(CC)CCCNC(=O)c1oc2c(c1C)-c1nn(Cc3ccc(Cl)cc3)cc1CC2
AC50 [1]: 15.8 µM [falling, single point]

COc1ccc(NC(=O)CCc2c(C)nn(-c3ccc(N4CCOCC4)nn3)c2C)cc1Cl
AC50 [1]: 6.31 µM [rising, single point]

Cc1cccc(-c2noc(C3CC(=O)N(c4ccc5c(c4)OCCO5)C3)n2)c1 (stereo not given)
AC50 [1]: 39.8 µM [falling, single point]

COc1ccc(NC(=O)CSc2ncn(-c3ccccc3)n2)cc1Cl
AC50 [1]: 39.8 µM [falling, single point]

COc1ccc(N(C)C(=O)NCc2noc3ccc(C)cc23)c(OC)c1
AC50 [1]: 25.1 µM [falling, single point]

CCCNC(=O)Nc1cc(C(=O)NCc2cccc(OCC)c2)ccc1N1CCCC1
AC50 [1]: 20 µM [falling, partial curve]

COc1ccccc1NC(=O)CSCc1cc(=O)c2c(C)cc(C)cc2[nH]1
AC50 [1]: 15.8 µM [falling, partial curve]

CC(C)(C)C1CCc2nc(NC(=O)Cc3ccc(Cl)cc3)sc2C1 (stereo not given)
AC50 [1]: 0.794 µM [rising, full curve]

Cc1cccc(NC(=O)C2CCCN(S(=O)(=O)c3c(C)noc3/C=C/N(C)C)C2)c1C (stereo not given)
AC50 [1]: 39.8 µM [falling, single point]

CCCn1c(N)c(C(=O)CSc2nnc(Cc3ccccc3)o2)c(=O)n(C)c1=O
AC50 [1]: 31.6 µM [falling, partial curve]

CCC(=O)N1CCc2cc(Br)cc(S(=O)(=O)CCC(=O)Nc3ccccc3C)c21
AC50 [1]: 0.316 µM [falling, single point]

CCN(CC)C(=S)SSC(=S)N(CC)CC
AC50 [2]: 15.8 µM [rising, partial curve] and 12.6 µM [rising, partial curve] | AC50 [3]: 39.8 µM [falling, single point]

COc1ccc(C(=O)CN2C(=O)N(c3cc(C)cc(C)c3)S(=O)(=O)c3ccccc32)cc1
AC50 [1]: 1 µM [rising, full curve, poor fit]

Clc1ccc(CCNc2ncnc3c2c(-c2ccccc2)cn3-c2ccccc2)cc1
AC50 [1]: 39.8 µM [falling, single point]

CSc1ncnc2c1ncn2CC(=O)[C@H]1CC[C@H]2[C@H]3CCC4=CC(=O)CC[C@@]4(C)[C@@H]3CC[C@@]12C
AC50 [1]: 3.16 µM [falling, single point]

Cc1ccc(Nc2c(-c3ccc(C)cc3)nc3cnccn23)cc1
AC50 [1]: 31.6 µM [falling, partial curve]

N#Cc1cccc(NC(=O)N2CCC(c3nc4c(nnn4Cc4cccc(Cl)c4)c(=O)[nH]3)CC2)c1
AC50 [1]: 39.8 µM [falling, single point]

CCOC(=O)c1ccc(Nc2c(-c3ccc(O)cc3)nc3nc[nH]n23)cc1
AC50 [1]: 39.8 µM [rising, single point]

Cc1ccccc1CS(=O)(=O)Cc1ccc(C(=O)NCCc2ccccc2)o1
AC50 [1]: 3.16 µM [falling, partial curve, poor fit]

CCCn1c(=O)n(-c2ccccc2)c(=O)c2sc3ccccc3c21
AC50 [1]: 3.98 µM [rising, partial curve]

CCOc1ccc(CCNC(=O)CN2CCN(Cc3ccc(F)cc3Cl)C2=O)cc1OCC
AC50 [1]: 25.1 µM [falling, single point]

CCCOc1ccccc1C(=O)N1CCC(c2nc3ccccc3s2)CC1
AC50 [1]: 31.6 µM [falling, partial curve]

COC(=O)CN1C(=O)CSc2ccc(S(=O)(=O)Nc3ccc(Cl)cc3C)cc21
AC50 [1]: 20 µM [falling, partial curve]

CC(C)Cc1nn2c(=O)cc(COC(=O)c3cccc(NC(=O)CCc4ccccc4)c3)nc2s1
AC50 [1]: 7.94 µM [falling, partial curve]

Cc1ccc2ccc(C(Nc3ccccn3)c3ccccc3)c(O)c2n1 (stereo not given)
AC50 [2]: 3.98 µM [rising, single point] | AC50 [3]: 39.8 µM [falling, single point]

Cc1ccc(CCNC(=O)C2CCCN(Cc3nc(-c4cccc(Cl)c4)oc3C)C2)cc1 (stereo not given)
AC50 [1]: 25.1 µM [falling, partial curve]

O=C(Cc1ccc(F)cc1)N1CCC(c2nc3c(nnn3Cc3ccc(Cl)cc3)c(=O)[nH]2)CC1
AC50 [1]: 31.6 µM [falling, single point]

COc1ccccc1S(=O)(=O)Cc1ccc(C(=O)N2CCN(c3ccc(C)cc3)C(C)C2)o1 (stereo not given)
AC50 [1]: 12.6 µM [falling, partial curve]
